Here are results for five molecules from paper PMC13128453, “Complexoform-restricted covalent TRMT112 ligands that allosterically agonize METTL5” (Nature Chemical Biology, 2025).

By UniProt entry, the sequences of proteins in these tests, tags left out.
UniProt Q9NRN9: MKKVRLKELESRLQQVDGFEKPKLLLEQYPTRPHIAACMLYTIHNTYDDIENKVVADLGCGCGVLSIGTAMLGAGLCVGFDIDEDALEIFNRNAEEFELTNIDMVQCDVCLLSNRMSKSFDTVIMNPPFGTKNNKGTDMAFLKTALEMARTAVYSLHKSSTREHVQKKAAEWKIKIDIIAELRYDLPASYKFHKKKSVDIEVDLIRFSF

Results are given in words; binding and its absence hold for the method and conditions named. In cells and extracts the contact can be indirect. These calls come from enrichment with a bait or labelling near it, and not all partners need be listed. Where a sequence is shown, tags or fusion partners need not be part of it.

The target in one test is T1, WT-TRMT112–FLAG (human) (UniProt Q9UI30).
T1 sequence: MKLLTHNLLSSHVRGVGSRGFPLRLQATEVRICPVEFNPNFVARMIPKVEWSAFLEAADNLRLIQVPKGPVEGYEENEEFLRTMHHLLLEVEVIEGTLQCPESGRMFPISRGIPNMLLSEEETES
The test can be described thus: affinity purification with mass spectrometry; anti-FLAG (anti-DYKDDDDK magnetic agarose) IP of TRMT112–FLAG from lysates of HCT116 TRMT112–FLAG cells (50 mM EPPS pH 7.5, 150 mM NaCl, 1% Nonidet P-40; 2 h, 4 °C), parental HCT116 as control; cells treated with DMSO or FWG-1B (50 µM, 4 h); TMT MS.

Another test deals with HA–METTL5 (human) (UniProt Q9NRN9). The test is described as follows: affinity purification with mass spectrometry; anti-HA magnetic beads IP of HA–METTL5 from lysates of HCT116 TRMT112–FLAG:HA–METTL5 cells (50 mM EPPS pH 7.5, 150 mM NaCl, 1% Nonidet P-40; 2 h, 4 °C); cells treated with DMSO or FWG-33B (5 µM, 4 h); TRMT112 tryptic peptides quantified by TMT MS.

Take “METTL5 (endogenous) (from UniProt Q9NRN9 1-209) (enzyme)”: the binding result with WT-TRMT112–FLAG (human) was “binds”.

B1: WT-TRMT112–FLAG (protein, UniProt Q9UI30 1-125)
chain: MKLLTHNLLSSHVRGVGSRGFPLRLQATEVRICPVEFNPNFVARMIPKVEWSAFLEAADNLRLIQVPKGPVEGYEENEEFLRTMHHLLLEVEVIEGTLQCPESGRMFPISRGIPNMLLSEEETES
Regarding B1, the binding result with HA–METTL5 (human) is reported as “binds”.

B2: THUMPD3 (enzyme, UniProt Q9BV44 1-507)
chain: MCDIEEATNQLLDVNLHENQKSVQVTESDLGSESELLVTIGATVPTGFEQTAADEVREKLGSSCKISRDRGKIYFVISVESLAQVHCLRSVDNLFVVVQEFQDYQFKQTKEEVLKDFEDLAGKLPWSNPLKVWKINASFKKKKAKRKKINQNSSKEKINNGQEVKIDQRNVKKEFTSHALDSHILDYYENPAIKEDVSTLIGDDLASCKDETDESSKEETEPQVLKFRVTCNRAGEKHCFTSNEAARDFGGAVQDYFKWKADMTNFDVEVLLNIHDNEVIVGIALTEESLHRRNITHFGPTTLRSTLAYGMLRLCDPLPYDIIVDPMCGTGAIPIEGATEWSDCFHIAGDNNPLAVNRAANNIASLLTKSQIKEGKPSWGLPIDAVQWDICNLPLRTGSVDIIVTDLPFGKRMGSKKRNWNLYPACLREMSRVCTPTTGRAVLLTQDTKCFTKALSGMRHVWRKVDTVWVNVGGLRAAVYVLIRTPQAFVHPSEQDGERGTLWQCKE
Take B2: in the test with WT-TRMT112–FLAG (human), the binding entry is “binds”.

B3: BUD23 (enzyme, UniProt O43709 1-281)
chain: MASRGRRPEHGGPPELFYDETEARKYVRNSRMIDIQTRMAGRALELLYLPENKPCYLLDIGCGTGLSGSYLSDEGHYWVGLDISPAMLDEAVDREIEGDLLLGDMGQGIPFKPGTFDGCISISAVQWLCNANKKSENPAKRLYCFFASLFSVLVRGSRAVLQLYPENSEQLELITTQATKAGFSGGMVVDYPNSAKAKKFYLCLFSGPSTFIPEGLSENQDEVEPRESVFTNERFPLRMSRRGMVRKSRAWVLEKKERHRRQGREVRPDTQYTGRKRKPRF
With B3, in the test with WT-TRMT112–FLAG (human), the binding entry is given as “binds”.

B4: TRMT11 (enzyme, UniProt Q7Z4G4 1-463)
chain: MALSCTLNRYLLLMAQEHLEFRLPEIKSLLLLFGGQFASSQETYGKSPFWILSIPSEDIARNLMKRTVCAKSIFELWGHGQSPEELYSSLKNYPVEKMVPFLHSDSTYKIKIHTFNKTLTQEEKIKRIDALEFLPFEGKVNLKKPQHVFSVLEDYGLDPNCIPENPHNIYFGRWIADGQRELIESYSVKKRHFIGNTSMDAGLSFIMANHGKVKENDIVFDPFVGTGGLLIACAHFGAYVYGTDIDYNTVHGLGKATRKNQKWRGPDENIRANLRQYGLEKYYLDVLVSDASKPSWRKGTYFDAIITDPPYGIRESTRRTGSQKEIPKGIEKWEKCPESHVPVSLSYHLSDMFLDLLNFAAETLVLGGRLVYWLPVYTPEYTEEMVPWHPCLELVSNCEQKLSSHTSRRLITMEKVKKFENRDQYSHLLSDHFLPYQGHNSFREKYFSGVTKRIAKEEKSTQE
For the molecule B4, in the test with WT-TRMT112–FLAG (human), the binding entry is “binds”.
